For at least one compound, name, drawing or mass did not settle the structure.
How the values were obtained:
Format in all cases: cell-based
NF-κB and ISRE = NF-κB and ISRE reporter assays (primary screens), statements in words for both assays; details: with LPS or IFN-α as primary stimulus; compared to compound 1
Experimental: THP1-Blue™ NF-κB cells were plated in 96-well plates at 10^5 cells/well in 100 μl RPMI supplemented with 10% fetal bovine serum (FBS, Omega Scientific, Inc., Tarzana, Calif.), 100 U/mL penicillin, 100 μg/ml streptomycin (Thermo Fisher Scientific) and Normocin (Invivogen). LPS was prepared in assay medium at a concentration of 20 μg/mL. Tested compounds were dissolved in DMSO at 1 mM as a stock solution and were further diluted in the LPS solution to a final concentration of 10 μM. 100 μL of this solution was then transferred to the plated cells to obtain a final concentration of LPS at 10 μg/mL and compound at 5 μM ([…]). The culture supernatants were harvested after a 20 hour incubation period, SEAP activity in the culture supernatants was determined by a colorimetric assay using QuantiBlue (Invivogen). Plate absorbance was read at 630 nm using a Tecan Infinite M200 plate reader (Männedorf, Switzerland). […]
ISRE-bla THP-1 cells were plated in 96-well plates at 5×10^4 cells/well in 50 μl RPMI supplemented with 10% dialyzed FBS (Atlanta Biologicals, Inc., GA), 0.1 mM nonessential amino acids, 1 mM sodium pyruvate, 100 U/mL penicillin and 100 μg/ml streptomycin. […] Fluorescence was measured on a Tecan Infinite M200 plate reader at an excitation wavelength of 405 nm, and emission wavelengths of 465 nm and 535 nm. […]

NF-κB = experiment: Measurement of NF-κB activation using THP1-Blue NF-κB cells (SEAP reporter, LPS as primary stimulus); details: with LPS
Experimental: THP1-Blue™ NF-κB cells were plated in 96-well plates at 10^5 cells/well in 100 μl RPMI supplemented with 10% fetal bovine serum (FBS, Omega Scientific, Inc., Tarzana, Calif.), 100 U/mL penicillin, 100 μg/ml streptomycin (Thermo Fisher Scientific) and Normocin (Invivogen). LPS was prepared in assay medium at a concentration of 20 μg/mL. Tested compounds were dissolved in DMSO at 1 mM as a stock solution and were further diluted in the LPS solution to a final concentration of 10 μM. 100 μL of this solution was then transferred to the plated cells to obtain a final concentration of LPS at 10 μg/mL and compound at 5 μM ([…]). The culture supernatants were harvested after a 20 hour incubation period, SEAP activity in the culture supernatants was determined by a colorimetric assay using QuantiBlue (Invivogen). Plate absorbance was read at 630 nm using a Tecan Infinite M200 plate reader (Männedorf, Switzerland). The SEAP concentration was directly proportional to NF-κB activity, which was 2-point normalized to yield activity of compound 1+LPS as 200% and activity for LPS as 100%.
Measurement of NF-κB Activation Using THP1-Blue NF-κB Cells. […] SEAP activity in the culture supernatants was determined by a colorimetric assay using QuantiBlue (Invivogen). Plate absorbance was read at 630 nm using a Tecan Infinite M200 plate reader (Mannedorf, Switzerland). […]

ISRE = experiment: Measurement of ISRE activity in ISRE-bla THP-1 cells (FRET, IFN-α as primary stimulus); details: with IFN-α
Experimental: ISRE-bla THP-1 cells were plated in 96-well plates at 5×10^4 cells/well in 50 μl RPMI supplemented with 10% dialyzed FBS (Atlanta Biologicals, Inc., GA), 0.1 mM nonessential amino acids, 1 mM sodium pyruvate, 100 U/mL penicillin and 100 μg/ml streptomycin. Type I IFN-α (R&D Systems, #11200-2) solution was prepared in assay medium at a concentration of 200 U/mL Tested compounds were dissolved in DMSO at 1 mM and were further diluted in the IFN-α solution to a final concentration of 10 μM. […] Fluorescence was measured on a Tecan Infinite M200 plate reader at an excitation wavelength of 405 nm, and emission wavelengths of 465 nm and 535 nm. Background values (cell free wells at the same fluorescence wavelength) were subtracted from the raw fluorescence intensity values and the emission ratios were calculated as the ratio of background subtracted fluorescence intensities at 465 nm to background subtracted fluorescence intensities at 535 nm. […]
Measurement of ISRE Activity in ISRE-bla THP-1 Cells. […] Fluorescence was measured on a Tecan Infinite M200 plate reader at an excitation wavelength of 405 nm and emission wavelengths of 465 and 535 nm. […]

Structure (SMILES)	activity in NF-κB and ISRE assays (in words) (NF-κB and ISRE)	NF-κB activity (in words) (NF-κB)	ISRE activity (in words) (ISRE)
CCOC(=O)CCCN(c1cc(OC)c(Cl)cc1OC)S(=O)(=O)c1ccc(OCC)cc1 [Compound 50, Ethyl 4-((N-(4-chloro-2,5-dimethoxyphenyl)-4-ethoxyphenyl)sulfonamido)butanoate]	retained dual NF-κB and ISRE activities	–	–
CCOc1ccc(S(=O)(=O)N(CCCC(=O)O)c2cc(OC)c(Cl)cc2OC)cc1 [Compound 53, 4-((N-(4-chloro-2,5-dimethoxyphenyl)-4-ethoxyphenyl)sulfonamido)butanoic acid]	retained activity	retaining the NF-κB activity	reduction in ISRE activity
